The whole screen tested about 53,000 sequences, of which about 3,700 (7%) were called active.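 The calls were made as follows: active = gene knockdowns whose robust z-score for IL-1 alpha signal is at least 2 or at most -2, so actives lie on both sides; inactive = the rest.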 This is one part of the list.
assay: Components of the Cytosolic LPS Sensing Pathway: Gene Identification via Genome-wide siRNA Screen; details: RAW264.7 macrophages, IL-1a HTRF, actives lie on both sides, screened at 100 nM (by protocol), cells primed 5 h with Pam3CSK4 first;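 also: robust z of the log signal after scaling to non-targeting control siRNA wells of the plate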
How it was run: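 Supernatant IL-1a by HTRF from RAW264.7 cells primed with Pam3CSK4 (5 hours) and transfected with LipidA (24 hour) after 48h siRNA knockdown at 100 nM; cell viability checked with CellTiter-Glo.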

| Sequence | z-score |
| --- | --- |
| GGGUUUCACCCAAAGCCUUTT against Zfp354c | inactive: -1.41 |
| GCAGACAACGCACUGAUGATT against Zfp804a | inactive: -0.0561 |
| GCUGCAAUAGUCACUGGAGTT against H2-K1 | inactive: 0.115 |
| GGUAUCCACAGUAAAAUUGTT against Pcp4 | inactive: -0.407 |
| GGUGCUGGUUUUUAAGAAATT against Hsbp1 | inactive: 1.84 |
| GGAACAGUCAUAUAAAGAATT against Grm8 | inactive: 0.218 |
| GGUUACCAUGAGGAGGAUUTT against Spata6 | inactive: -1.37 |
| GCUCUCUUAAAGCAUGUAATT against Cog6 | inactive: 0.213 |
| GGCUCCUGAUUGUUUACCCTT against Hbb-bh1 | inactive: 1.05 |
| GCUUUGUUGGGAGUGAAAUTT against Olfr728 | active: -2.11 |
| CGGCAACCAAUGCAUACAATT against Tpd52 | inactive: 0.441 |
| GGCAGGUAAUAAACAGACATT against 2410141K09Rik | inactive: -1.38 |
| GGACCAUGUUAGAGCAUGCTT against Traf2 | active: -2.36 |
| GGAUUGUGCUGUGAAACAUTT against Pilrb1 | inactive: -1.89 |
| GCUUUUUAAGACUUUGUCATT against Mcl1 | inactive: -0.267 |
| GGAAAUCUAUUUCAUUGACTT against Zcchc10 | inactive: 0.956 |
| GGCAACUAUGUAAAACCUUTT against Sorbs1 | inactive: -0.0324 |
| GGAAAAAAAAAUGACUCCUTT against Kcne1 | inactive: 0.591 |
| GGUUCUUUUUACUCAGUGGTT against Ankhd1 | active: -2.53 |
| CGAGCUUAUCAUCAGCGACTT against Polr2f | active: -2.74 |
| GGGAGUUAUUUAAGAUUCUTT against Has1 | inactive: 0.0567 |
| GGGCAACUUUUUGAUAUUCTT against Nacc2 | inactive: -0.601 |

| Sequence | z-score |
| --- | --- |
| GCUCCAGUUAAAUGUUACATT against Icam5 | inactive: 0.169 |
| GCAAAAAUGUUAAGGGUGCTT against Snph | inactive: -1.97 |
| GCUAAAUUACACAUUGACCTT against Vcam1 | inactive: 0.226 |
| CCGGACUUUAGAAUAAUGUTT against Hhex | inactive: 0.144 |
| CCCUCUUUACCAGUAUUACTT against Pla2g5 | inactive: 0.287 |
| CCAUCGAUCACGUCAAAGGTT against Rbm15b | inactive: -1.07 |
| GCAAGUGGUGUUUUAACCUTT against Ccdc169 | inactive: -1.83 |
| GGCUUCAGACAAGCAAUAATT against Lce1l | inactive: -1.04 |
| GGGUGUCAUCCUUAUCCUGTT against Olfr655 | inactive: -0.0528 |
| GCCGACUCAUGGUUUAGAATT against Tmem18 | inactive: -0.0972 |
| GGUAAAGAAUCUCAACAGCTT against Gatb | inactive: 0.738 |
| GCAAGUUUAGUGAAUUGUGTT against Ddx58 | inactive: -0.219 |
| GGCUAAAAUCUAUUUAUCGTT against Fezf2 | inactive: 1.16 |
| GGCUUACCGAAAGCAAGCCTT against Dnajb4 | inactive: 0.0143 |
| GGAGAAAAACACAUCCCAUTT against Foxa2 | inactive: -1.46 |
| GGACCUGAAACACGCCAAUTT against Cdk18 | inactive: -0.35 |
| GCAAGUCCUAAUAUUGUGATT against Rab5a | inactive: 0.0993 |
| GGAUUUGAUCCGAUACCUGTT against Timeless | inactive: 0.563 |
| CCAUGCAUGUUUUAGGCCATT against Gsdmc2 | inactive: -1.21 |
| GGAUCUGUGAGAAUCAUAGTT against Rabgap1l | active: -2.24 |
| GGGAACCAGGGACUUUGAUTT against AI661453 | inactive: 0.654 |
| GCCCUUACUUAGGUCUAGGTT against Kctd12 | inactive: -0.522 |

| Sequence | z-score |
| --- | --- |
| GCCAUAAACCGAGGAAAAATT against Fam71f1 | inactive: -1.22 |
| GGACUUAGAAGUCUGCUAATT against Iqcb1 | inactive: -0.845 |
| GGUGAUUUCAAAUGAAAGCTT against Prps2 | inactive: -0.702 |
| GGGCUAUCGACUCAACAGATT against Kif23 | inactive: -1.71 |
| GCAGAUAGUUUUGUAACACTT against Bclaf3 | inactive: 0.807 |
| GCAAGUAACUACCAGAGUATT against Cfap20 | inactive: -0.488 |
| GGUUUGCAAUAAUUUUCCCTT against Cyp2c66 | inactive: -0.0991 |
| GGAUGUUGGAAGAAGGCUUTT against Kcna5 | inactive: 0.14 |
| UGUCUGGAUGUCUAGGUGATT against Pisd-ps1 | inactive: -0.747 |
| GGAAGAAAGUGGCAUAGCCTT against Sirt7 | inactive: 0.124 |
| GGCAAAUCCAAAGUUGUCUTT against Sowahc | inactive: -0.878 |
| GCAACAUAAAUCCCAAAGUTT against Myo1h | inactive: 0.376 |
| CCCGAUUAAAGUUUUGACCTT against Pbx4 | inactive: 0.995 |
| GGCCUUGUGUGUCCAUCAATT against 4933421I07Rik | inactive: -1.91 |
| GGAAGUGCUUAUGUCCUUATT against Cited2 | inactive: -0.981 |
| GGGAGAAUCGUCAAUGAUGTT against Dpysl3 | inactive: -0.583 |
| GCGAACAUUUUUCAGGGUATT against Nsun7 | inactive: -0.0457 |
| GCUCCCUUAGGCUAUGAUATT against Ash2l | inactive: -0.658 |
| CCUCAUCACUCAUAGCAGATT against Gfi1 | inactive: -0.524 |
| CCUACAUGACCACAGAGUUTT against Bbof1 | inactive: 0.413 |
| GGGAAAAUAUCUCAUAUCATT against Colec10 | inactive: -0.944 |
| GGUAGACUGAACUUCAGCATT against Larp6 | inactive: -1.31 |

| Sequence | z-score |
| --- | --- |
| GGAAGUAUGAAAUUAUCAGTT against Car12 | inactive: 0.0371 |
| GGCAGAAAAACUGUGCAACTT against Washc5 | inactive: 0.732 |
| GUCCCACACUGAUAAGAUUTT against Lcorl | inactive: -0.602 |
| GGACCGAAAGCAUUCGAUUTT against Cdhr3 | inactive: 1.79 |
| GCAAAAUAGCCAGUUAAUGTT against Strn | inactive: 1.92 |
| GGCUGGACCAAAUUUGGUATT against Gpihbp1 | inactive: 0.84 |
| CGGGUAUGCCUUAUGUUGATT against Etnk2 | inactive: -0.216 |
| GGAAACCUUUUACCUUUAATT against Padi1 | inactive: -0.874 |
| CGCCGACAGAGUUCAGAAATT against Stpg1 | inactive: -0.976 |
| GGUGAGAACUCAAGAGACUTT against Scp2 | inactive: -1.06 |
| GGAUCACACCAUCAAAAAGTT against Copb1 | inactive: -1.21 |
| GGCGAUAAGGAACAGAAGUTT against Ppp3r1 | inactive: -0.199 |
| GGCUCGUCAAAUCAAGUAUTT against H2bc6 | active: -2.37 |
| GCUUGAUUAUUGUGUGUCCTT against Olfr786 | inactive: -1.53 |
| GGUUGUAUUAUCUUCGGAATT against Psmb8 | inactive: 0.986 |
| GGAACUUCUGGAAUCCCUCTT against Klra5 | inactive: -0.527 |
| GGCUUACCUAAUCAAUUGUTT against Laptm4a | inactive: 0.424 |
| CGAUUCUUUAGGAACUUUGTT against Pak7 | inactive: -0.0771 |
| CGAACACAUAUAGAUCAUCTT against Atp8b5 | inactive: 0.000437 |
| GGACAAGCUAAGCAUUGAGTT against Atp6ap1 | inactive: -1.45 |
| GGAAGCUGAAAGAAGGAGATT against Mx1 | inactive: 1.58 |
| GCGACUGGCGCAACAAAAUTT against Sox18 | inactive: -0.683 |

As a short view, some entries already given:

| Sequence | z-score |
| --- | --- |
| GCCAUAAACCGAGGAAAAATT against Fam71f1 | inactive: -1.22 |
| GGACUUAGAAGUCUGCUAATT against Iqcb1 | inactive: -0.845 |
| GGUGAUUUCAAAUGAAAGCTT against Prps2 | inactive: -0.702 |
| GGGCUAUCGACUCAACAGATT against Kif23 | inactive: -1.71 |
| GCAGAUAGUUUUGUAACACTT against Bclaf3 | inactive: 0.807 |
| GCAAGUAACUACCAGAGUATT against Cfap20 | inactive: -0.488 |
| GGUUUGCAAUAAUUUUCCCTT against Cyp2c66 | inactive: -0.0991 |
| GGAUGUUGGAAGAAGGCUUTT against Kcna5 | inactive: 0.14 |
| UGUCUGGAUGUCUAGGUGATT against Pisd-ps1 | inactive: -0.747 |
| GGAAGAAAGUGGCAUAGCCTT against Sirt7 | inactive: 0.124 |
| GGCAAAUCCAAAGUUGUCUTT against Sowahc | inactive: -0.878 |
| GCAACAUAAAUCCCAAAGUTT against Myo1h | inactive: 0.376 |
| CCCGAUUAAAGUUUUGACCTT against Pbx4 | inactive: 0.995 |
| GGCCUUGUGUGUCCAUCAATT against 4933421I07Rik | inactive: -1.91 |
| GGAAGUGCUUAUGUCCUUATT against Cited2 | inactive: -0.981 |
| GGGAGAAUCGUCAAUGAUGTT against Dpysl3 | inactive: -0.583 |
| GCGAACAUUUUUCAGGGUATT against Nsun7 | inactive: -0.0457 |
| GCUCCCUUAGGCUAUGAUATT against Ash2l | inactive: -0.658 |
| CCUCAUCACUCAUAGCAGATT against Gfi1 | inactive: -0.524 |
| CCUACAUGACCACAGAGUUTT against Bbof1 | inactive: 0.413 |

The list goes on:

| Sequence | z-score |
| --- | --- |
| GGAUACUUUGACCAAGUCUTT against Irx6 | inactive: -1.84 |
| GCCAUUCCAAAGUAUUACCTT against Mrpl34 | inactive: -0.518 |
| GCAGAUAGCUGCUACCCAUTT against Tmco6 | inactive: -0.728 |
| GCUGUUCAUAUAUCUUGCUTT against Olfr1386 | inactive: 1.17 |
| GGUCCCGGAACGGUACUUUTT against Paqr3 | inactive: -0.778 |
| GGUCACACUGGUGAAGUCUTT against Tjp1 | inactive: -0.131 |
| GGAUGAGAAUAGCUAGAAATT against Zfp553 | inactive: 1.96 |
| GGCAAGAGAAUUCAGAUCUTT against Slc5a1 | active: 2.91 |
| GGAGUUUCUAGAACUCUCATT against Rtl3 | inactive: 0.411 |
| CCAUAGCAGGGAAGAUUUUTT against Kcnd2 | active: 3.78 |
| GGUCAGCUAUCUAAUGAUUTT against Fam162a | inactive: 0.665 |
| GCUAGAUCCCGUGCUUAAGTT against Map1s | inactive: -0.156 |
| GCAUGUCGAGUUUGAUUUCTT against Wdr12 | inactive: -0.247 |
| GGAUAUCACCCACAAUAAATT against Vps28 | inactive: -0.653 |
| GGAGUACCUGGAGUUCUUCTT against Zbtb7a | inactive: -1.33 |
| GGCUCAUGAGAAGACACACTT against Zbtb17 | inactive: 0.204 |
| GGAACUAAUGUGCAGGAGGTT against Suclg2 | inactive: 0.459 |
| GGAUGAAGAAGAUGAAGAUTT against Prepl | active: -2.62 |
| GGCUGAAUCUUGAAAAUGATT against Cntnap1 | inactive: -1.52 |

— PubChem BioAssay AID1508600 (Functional Genomics Laboratory (NCATS/FGL), 2020)
